Patent US20250270180A1, “MEK INHIBITORS AND THERAPEUTIC USES THEREOF” (Immuneering Corporation, priority 2020, published 2025)
Where “and” joins values, the source holds several entries; their conditions need not be identical. Identical values can stand only once. At least one read-out could not be matched to a standard name with certainty.

Test system: A549 (KRAS G12S) pERK: total ERK
Experiment: Phospho-ERK screen in A549 (KRAS G12S)
Type: cell-based
Conditions: 10 μM for 2 hours
Protocol: Materials and Methods: A549 or A375 cells were seeded in 6-well plates at an appropriate seeding density on day 0. On day 2 or 3, after checking the health and confluency of cells, the media was aspirated and replaced with 1 mL media containing a predetermined concentration of compound and incubated for 2 hours. After 2 hours, the media was aspirated, and the cells washed 2 times with cold PBS. Cells were lysed on ice, with 50 uL 1×CST lysis buffer+1 mM PMSF for 5 minutes. After 5 minutes, cells were removed using a scraper and transferred to cold 1.5 mL tubes, and centrifuged for 10 min, 4° C., 14,000×g. Supernatant was gently removed and snap frozen in liquid nitrogen. Protein concentration of the lysate was determined using Bradford Reagent (analyzed using SpectraMax M2E) and diluted to 1 mg/mL or pERK or 1.5 mg/mL for pMEK analysis. Cell lysates were then analyzed for phosphor-ERK/total-ERK levels on a Jess system (ProteinSimple; Cat #JS3346) using the following antibodies: tERK1/2 (CST 4696; 1:50) and pERK1/2 (CST 4377; 1:50). For pMEK/tMEK, the following antibodies were used: tMEK1/2 (CST 4694; 1:15) and pMEK1/2 (CST 9154; 1:400). All dilutions were in Milk-free antibody diluent.
The results of a phospho-ERK Screen in A549 (KRAS G12S) study is described in Table 7, 7A, 7B, and 8 below.

SMILES	pERK: total ERK (% relative to vehicle)
CNS(=O)(=O)Nc1cccc(Cc2c(C)c3ccc(OC(=O)N(C)C)cc3oc2=O)c1F [Compound 7]	0.53% and 3.33%
CNS(=O)(=O)Nc1cccc(Cc2c(CNCC(=O)N3CCNCC3)c3ccc(OC(=O)N(C)C)cc3oc2=O)c1F [Compound 191]	8.60%
